From paper PMC11580427

Chains of the proteins cited; added tags and fusions are not shown. Lines headed by an entry give the natural chain unless they say otherwise; changes in a name come on top.
UniProt E2RTP0: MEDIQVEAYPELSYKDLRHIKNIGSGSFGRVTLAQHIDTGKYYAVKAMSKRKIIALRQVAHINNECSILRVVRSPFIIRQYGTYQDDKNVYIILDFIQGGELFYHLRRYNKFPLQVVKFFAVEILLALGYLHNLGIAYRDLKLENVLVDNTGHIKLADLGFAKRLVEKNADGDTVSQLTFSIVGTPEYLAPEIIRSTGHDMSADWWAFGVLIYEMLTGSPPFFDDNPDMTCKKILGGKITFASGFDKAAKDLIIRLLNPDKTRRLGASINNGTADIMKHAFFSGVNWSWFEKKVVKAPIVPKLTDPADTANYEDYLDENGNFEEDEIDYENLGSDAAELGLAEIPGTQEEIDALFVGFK
UniProt Q2VWB6: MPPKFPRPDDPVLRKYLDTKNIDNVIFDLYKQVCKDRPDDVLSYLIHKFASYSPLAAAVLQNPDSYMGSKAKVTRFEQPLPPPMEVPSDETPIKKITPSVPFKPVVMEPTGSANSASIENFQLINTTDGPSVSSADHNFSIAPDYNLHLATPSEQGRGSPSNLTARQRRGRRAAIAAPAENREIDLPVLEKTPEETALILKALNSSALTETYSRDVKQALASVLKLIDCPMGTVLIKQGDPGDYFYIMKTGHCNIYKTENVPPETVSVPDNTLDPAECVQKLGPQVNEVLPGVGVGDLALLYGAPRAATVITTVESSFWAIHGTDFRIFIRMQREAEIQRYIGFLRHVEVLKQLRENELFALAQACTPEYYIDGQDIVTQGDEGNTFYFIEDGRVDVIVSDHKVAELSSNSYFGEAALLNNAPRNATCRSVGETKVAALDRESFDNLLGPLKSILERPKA

Biological target: Giardia lamblia PKA catalytic domain (GlPKAc) tagged with cHalo (156-257) (Giardia lamblia) (UniProt E2RTP0)
Assay: split reporter; Split-Halo in live Giardia cells: GlPKAr-nHalo (1-155) and GlPKAc-cHalo (156-257) under native promoters; 20 nM Janelia Fluor HaloTag ligand; live imaging of trophozoites and at 0, 2 and 4 h post-exposure to encystation medium

- binding: binds
Substance: Giardia lamblia PKA regulatory domain (GlPKAr) tagged with nHalo (1-155) (from UniProt Q2VWB6)

No constants are given. Whether binding was seen depends on the method and setting. In cells and extracts the contact can be indirect. Binding calls can cover weak binding; strength is not graded here.
